Values joined by “and” are separate entries in the source; they are usually repeats but may differ in a detail not shown here. Equal values may be shown once. Further values from the same series stand in other lists.
Assay: Rat plasma pharmacokinetics of total radioactivity after [^14C]-Compound 1
Type: in vivo, male Sprague-Dawley rats
Settings: PO 100 mg/kg; for Plasma total radioactivity concentration, Mean: group mean; for Plasma total radioactivity concentration: Group 2A, individual rats, 100 mg/kg
Description: A preliminary rat metabolism study was conducted with radiolabeled Compound 1. The compound was labeled with [^14C] in the C-8 position of the guanine moiety. The objectives of the study were to determine, 1) the plasma pharmacokinetics of total radioactivity, 2) the time-course of total radioactivity and the amount of 2′-C-methyl guanosine-5′-TP in liver, 3) the major route of excretion, and 4) the metabolic profile in excreta, liver, and plasma.
Isotopically diluted [^14C]-Compound 1 was administered intravenously to male Sprague-Dawley rats at 50 mg/kg or by oral gavage at 100 mg/kg.
The plasma concentration-time data for total radioactivity was analyzed using Microsoft® Office Excel 2003 to obtain the area under the concentration-time curve (AUC). AUC0-24 (area under the concentration-time curve from 0 to 24 h after dosing) was calculated using the linear trapezoidal rule and nominal sampling times. For the IV dose group, concentration at time zero was extrapolated from the concentration data for the first two time points. The maximum (peak) plasma concentrations (Cmax) and the time to peak concentrations (tmax) were the observed values. Descriptive statistics were prepared in Excel.
Radioanalyses of plasma samples were conducted. The plasma concentration data for total radioactivity expressed as μg equivalents/mL are summarized below: […]

Which results are given for `CC(C)(CO)C(=O)SCCOP(=O)(NCc1ccccc1)OC[C@H]1O[C@@H](n2cnc3c(=O)[nH]c(N)nc32)[C@](C)(O)[C@@H]1O` (stereo partly shown) [[^14C] Compound 1]?
Plasma total radioactivity concentration, Mean (1 h): 0.404 μg Equivalents/mL; Plasma total radioactivity concentration, Mean (2 h): 0.869 μg Equivalents/mL; Plasma total radioactivity concentration (1 h): 0.305 μg Equivalents/mL and 0.439 μg Equivalents/mL and 0.470 μg Equivalents/mL and 0.401 μg Equivalents/mL; Plasma total radioactivity concentration (2 h): 0.634 μg Equivalents/mL and 0.877 μg Equivalents/mL and 1.086 μg Equivalents/mL and 0.879 μg Equivalents/mL

— patent US20100003217A1, “Compounds and Pharmaceutical Compositions for the Treatment of Viral Infections” (priority 2008, published 2010)
